From PMC10745484
Results are given in words; binding and its absence hold for the method and conditions named.

Amino acid sequences for entries named in this document (tags omitted). Residues count along the entry.
UniProt P15502, residues 27-786: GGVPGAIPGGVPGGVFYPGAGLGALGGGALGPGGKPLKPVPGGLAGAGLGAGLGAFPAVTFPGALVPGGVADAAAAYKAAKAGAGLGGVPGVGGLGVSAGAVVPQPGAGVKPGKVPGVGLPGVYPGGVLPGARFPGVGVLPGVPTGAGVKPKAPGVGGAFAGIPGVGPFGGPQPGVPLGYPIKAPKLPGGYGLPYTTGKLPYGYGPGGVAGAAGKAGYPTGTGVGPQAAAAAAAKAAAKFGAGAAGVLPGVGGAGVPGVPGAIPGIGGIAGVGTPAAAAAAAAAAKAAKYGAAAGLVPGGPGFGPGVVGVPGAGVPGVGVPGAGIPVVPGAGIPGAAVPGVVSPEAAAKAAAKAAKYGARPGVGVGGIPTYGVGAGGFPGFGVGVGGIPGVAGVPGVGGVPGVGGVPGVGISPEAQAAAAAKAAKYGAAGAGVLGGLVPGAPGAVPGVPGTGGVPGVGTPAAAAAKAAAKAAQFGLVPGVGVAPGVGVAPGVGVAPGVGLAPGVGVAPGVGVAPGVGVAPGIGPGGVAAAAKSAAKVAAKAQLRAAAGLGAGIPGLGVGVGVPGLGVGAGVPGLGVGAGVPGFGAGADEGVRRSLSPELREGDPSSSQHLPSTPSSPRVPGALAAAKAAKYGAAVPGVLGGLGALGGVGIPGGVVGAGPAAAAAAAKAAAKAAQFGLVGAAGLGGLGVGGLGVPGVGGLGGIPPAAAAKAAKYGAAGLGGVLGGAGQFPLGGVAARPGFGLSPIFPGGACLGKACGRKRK
UniProt P02769, residues 25-607: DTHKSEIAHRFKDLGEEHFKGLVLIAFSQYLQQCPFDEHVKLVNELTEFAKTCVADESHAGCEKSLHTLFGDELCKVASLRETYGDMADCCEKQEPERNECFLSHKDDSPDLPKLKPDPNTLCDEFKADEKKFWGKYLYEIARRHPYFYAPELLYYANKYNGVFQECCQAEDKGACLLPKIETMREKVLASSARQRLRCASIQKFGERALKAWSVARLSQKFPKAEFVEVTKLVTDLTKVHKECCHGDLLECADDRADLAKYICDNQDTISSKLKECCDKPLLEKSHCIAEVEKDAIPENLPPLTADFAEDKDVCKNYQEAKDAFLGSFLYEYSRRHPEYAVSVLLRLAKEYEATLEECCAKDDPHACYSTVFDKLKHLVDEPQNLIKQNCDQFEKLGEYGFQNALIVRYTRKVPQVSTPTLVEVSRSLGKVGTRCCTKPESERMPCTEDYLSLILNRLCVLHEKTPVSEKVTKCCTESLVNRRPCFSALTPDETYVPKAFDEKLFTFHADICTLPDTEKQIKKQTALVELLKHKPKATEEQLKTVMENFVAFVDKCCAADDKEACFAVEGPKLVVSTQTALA

Legend:
[1] = molecular target: recombinant Fe-S cluster assembly ATP-binding protein (SufC) (Streptococcus pneumoniae strain D39); experiment: SPR; Biacore X100; rSufC immobilised on a CM5 chip (1000 RU); plasminogen or BSA flowed at 6.25 to 100 nM, 25 °C, 100 mM HEPES pH 7.4, 150 mM NaCl, 3 mM EDTA, 0.005% surfactant P20; apparent constants; both purified
[2] = molecular target: elastin from human lungs (human) (UniProt P15502); experiment: ELISA; host proteins or BSA coated at 1 µg/well (coating buffer pH 9.6, overnight 4 °C), blocked with 1% skim milk in PBST; 1 µg of recombinant protein added, 1 h at 37 °C; bound recombinant protein detected with peptide antiserum; for rSufC on plasminogen also with EACA added; both purified
[3] = molecular target: bovine serum albumin (BSA) (bovine) (UniProt P02769); experiment: as above

Row | Substance | binding [1] | binding [2] | binding [3]
1 | bovine serum albumin (BSA) (from UniProt P02769 25-607) | no binding (tested: 6.25 to 100 nM) | – | –
2 | recombinant Fe-S cluster assembly ATP-binding protein (SufC) (from UniProt A0A0H2ZRV3 2-256) | – | no binding (tested: 1 µg per well) | no binding (tested: 1 µg per well)
